These are yes or no findings as the source states them, for the method shown. Some results given as binding are weak or reduced against the parent protein; the word gives no strength.
Columns and labels:
[1] = target: His-tagged human ISD11 (human) (UniProt Q9HD34); test: co-purification (Ni affinity, gel filtration); bi-cistronic co-expression of His-ISD11 and non-tagged NFS1 in E. coli; Ni Sepharose, then Superdex S200
[2] = target: His-tagged human ISD11 (human) (UniProt Q9HD34); test: SEC; poly-cistronic co-expression of NFS1, His-ISD11 and ISCU in E. coli; Ni affinity, then analytical gel filtration (Sepax SRT SEC-300; 50 mM HEPES pH 7.5, 150 mM NaCl, 5% glycerol, 2 mM TCEP); TCA precipitation and SDS-PAGE of fractions

Sequences of proteins named here, by UniProt entry; tags and fusion partners are left off. A change or cut given only in a name is not applied to a line headed by its entry. Residues count along the entry.
UniProt Q9HD34: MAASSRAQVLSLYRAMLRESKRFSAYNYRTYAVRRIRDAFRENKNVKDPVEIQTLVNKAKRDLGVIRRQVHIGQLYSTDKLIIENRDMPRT
UniProt P0A6A8: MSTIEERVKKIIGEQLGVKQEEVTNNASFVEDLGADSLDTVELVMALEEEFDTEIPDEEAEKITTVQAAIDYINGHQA
UniProt Q9Y697, residues 56-457: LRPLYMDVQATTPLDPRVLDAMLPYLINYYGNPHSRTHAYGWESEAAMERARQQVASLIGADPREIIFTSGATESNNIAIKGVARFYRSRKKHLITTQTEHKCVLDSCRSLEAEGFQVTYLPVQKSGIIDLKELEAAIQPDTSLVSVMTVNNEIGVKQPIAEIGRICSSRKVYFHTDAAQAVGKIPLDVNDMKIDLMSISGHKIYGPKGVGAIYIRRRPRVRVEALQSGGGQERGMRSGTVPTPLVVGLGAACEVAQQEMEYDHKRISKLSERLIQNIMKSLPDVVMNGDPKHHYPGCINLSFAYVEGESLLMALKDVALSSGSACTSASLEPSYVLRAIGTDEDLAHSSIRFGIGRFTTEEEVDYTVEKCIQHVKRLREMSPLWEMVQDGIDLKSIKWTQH

binding [1] | binding [2] | Substance
binds | binds | E. coli acyl carrier protein (ACP) (from UniProt P0A6A8 1-78)
binds |  | non-tagged human NFS1 (Δ1-55) (from UniProt Q9Y697 56-457) (enzyme)

From publication PMC6098246, “Zinc(II) binding on human wild-type ISCU and Met140 variants modulates NFS1 desulfurase activity” (Biochimie, 2018)
